{"source": "patent US20240025887A1", "about": "“THIENYL AND CYCLOALKYL AMINOPYRIMIDINE COMPOUNDS AS INHIBITORS OF NUAK KINASES, COMPOSITIONS AND USES THEREOF” (Ontario Institute for Cancer Research (OICR), priority 2021, published 2024)", "target": "T1, NUAK2 (h) (Homo sapiens, UniProt Q9H093)", "T1 construct": "This assay was done radiometrically using full-length, recombinant enzyme; purchased Eurofins", "T1 sequence (Q9H093 1-628)": "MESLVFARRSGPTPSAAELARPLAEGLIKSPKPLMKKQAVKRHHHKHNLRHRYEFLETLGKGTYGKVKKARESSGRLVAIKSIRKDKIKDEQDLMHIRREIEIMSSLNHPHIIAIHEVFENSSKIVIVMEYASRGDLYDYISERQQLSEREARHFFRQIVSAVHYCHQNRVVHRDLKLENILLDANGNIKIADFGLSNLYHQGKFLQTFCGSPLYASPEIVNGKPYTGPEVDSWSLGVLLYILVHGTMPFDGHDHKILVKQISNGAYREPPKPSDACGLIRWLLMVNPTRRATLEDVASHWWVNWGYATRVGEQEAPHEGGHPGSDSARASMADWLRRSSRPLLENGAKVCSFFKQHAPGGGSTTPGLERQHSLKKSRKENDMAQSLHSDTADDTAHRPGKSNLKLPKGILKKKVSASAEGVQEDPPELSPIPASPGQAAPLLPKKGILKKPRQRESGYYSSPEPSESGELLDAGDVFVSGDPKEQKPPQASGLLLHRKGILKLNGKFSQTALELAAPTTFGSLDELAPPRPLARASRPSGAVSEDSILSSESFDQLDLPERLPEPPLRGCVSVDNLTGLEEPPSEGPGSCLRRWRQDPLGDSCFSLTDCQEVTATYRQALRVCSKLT", "experiment": "NUAK2 enzymatic assay (radiometric, Eurofins)", "assay_type": "biochemical", "conditions": "NUAK2 selectivity over Aurora-A, ratio of IC50s", "description": "To identify small molecule NUAK inhibitors, a biochemical NUAK2 enzymatic assay was outsourced to Eurofins. This assay was done radiometrically using full-length, recombinant enzyme. NUAK2 (h) was incubated with 8 mM MOPS pH 7.0, 0.2 mM EDTA, 300 μM […], 10 mM magnesium acetate and […] (specific activity and concentration as required). The reaction was initiated by the addition of the Mg/ATP mix. After incubation for 40 minutes at room temperature, the reaction was stopped by the addition of phosphoric acid to a concentration of 0.5%. 10 μL of the reaction was then spotted onto a P30 filter mat and washed four times for 4 minutes in 0.425% phosphoric acid and once in methanol prior to drying and scintillation counting. Compounds were routinely counter screened against Aurora A and NUAK1. The results are shown in Table 1 where IC50s are reported the following ranges: A: 0.1-10 nM; B: 11-100 nM; C: 101-1000 nM; D: >1000 nM for the compounds of Formula I)", "note": "At least one structure is not confirmed: it was looked up by name or label, or the drawing left a doubt."}
{"compound": "CN1CCN(c2ccc(Nc3ncc(Cl)c(N[C@@H]4CCCC[C@@H]4C(N)=O)n3)c(C(F)(F)F)c2)CC1", "note": "[Compound I-85, (1S,2R)-2-((5-chloro-2-((4-(4-methylpiperazin-1-yl)-2-(trifluoromethyl)phenyl)amino)pyrimidin-4-yl)amino)cyclohexane-1-carboxamide]", "values": [{"measurement": "AUR-A (IC50, nM)/NUAK2 (IC50, nM)", "result": 526}]}
